In article PMC11559372:
Results are given in words; binding and its absence hold for the method and conditions named. In cells and extracts the contact can be indirect. Some binding calls cover weakened binding; strength is not graded here.

Target: T1, USP22 (human (endogenous in OC cells A2780 and SKOV3)) (UniProt Q9UPT9)
T1 sequence: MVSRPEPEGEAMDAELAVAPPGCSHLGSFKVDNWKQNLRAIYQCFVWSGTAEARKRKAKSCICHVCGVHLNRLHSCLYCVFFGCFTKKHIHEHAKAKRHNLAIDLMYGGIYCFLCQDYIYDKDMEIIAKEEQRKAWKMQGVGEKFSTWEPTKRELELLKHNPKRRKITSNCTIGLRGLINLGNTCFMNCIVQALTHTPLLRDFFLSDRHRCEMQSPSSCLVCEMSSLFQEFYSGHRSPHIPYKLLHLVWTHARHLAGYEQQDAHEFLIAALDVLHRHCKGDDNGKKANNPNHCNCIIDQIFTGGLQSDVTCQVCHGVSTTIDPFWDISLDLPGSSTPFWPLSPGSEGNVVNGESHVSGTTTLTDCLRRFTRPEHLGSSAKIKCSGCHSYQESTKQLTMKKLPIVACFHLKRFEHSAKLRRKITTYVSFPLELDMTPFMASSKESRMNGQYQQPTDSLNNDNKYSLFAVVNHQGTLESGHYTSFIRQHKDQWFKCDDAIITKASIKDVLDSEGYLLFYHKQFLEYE
Experiment: co-IP; cell lysate incubated with anti-USP22 (or control anti-IgG) overnight at 4°C, Protein G magnetic beads, western blot

binding: binds
B1: Zinc finger E-box-binding homeobox 1 (protein, UniProt P37275 1-1124)
chain: MADGPRCKRRKQANPRRNNVTNYNTVVETNSDSDDEDKLHIVEEESVTDAADCEGVPEDDLPTDQTVLPGRSSEREGNAKNCWEDDRKEGQEILGPEAQADEAGCTVKDDECESDAENEQNHDPNVEEFLQQQDTAVIFPEAPEEDQRQGTPEASGHDENGTPDAFSQLLTCPYCDRGYKRFTSLKEHIKYRHEKNEDNFSCSLCSYTFAYRTQLERHMTSHKSGRDQRHVTQSGCNRKFKCTECGKAFKYKHHLKEHLRIHSGEKPYECPNCKKRFSHSGSYSSHISSKKCISLIPVNGRPRTGLKTSQCSSPSLSASPGSPTRPQIRQKIENKPLQEQLSVNQIKTEPVDYEFKPIVVASGINCSTPLQNGVFTGGGPLQATSSPQGMVQAVVLPTVGLVSPISINLSDIQNVLKVAVDGNVIRQVLENNQANLASKEQETINASPIQQGGHSVISAISLPLVDQDGTTKIIINYSLEQPSQLQVVPQNLKKENPVATNSCKSEKLPEDLTVKSEKDKSFEGGVNDSTCLLCDDCPGDINALPELKHYDLKQPTQPPPLPAAEAEKPESSVSSATGDGNLSPSQPPLKNLLSLLKAYYALNAQPSAEELSKIADSVNLPLDVVKKWFEKMQAGQISVQSSEPSSPEPGKVNIPAKNNDQPQSANANEPQDSTVNLQSPLKMTNSPVLPVGSTTNGSRSSTPSPSPLNLSSSRNTQGYLYTAEGAQEEPQVEPLDLSLPKQQGELLERSTITSVYQNSVYSVQEEPLNLSCAKKEPQKDSCVTDSEPVVNVIPPSANPINIAIPTVTAQLPTIVAIADQNSVPCLRALAANKQTILIPQVAYTYSTTVSPAVQEPPLKVIQPNGNQDERQDTSSEGVSNVEDQNDSDSTPPKKKMRKTENGMYACDLCDKIFQKSSSLLRHKYEHTGKRPHECGICKKAFKHKHHLIEHMRLHSGEKPYQCDKCGKRFSHSGSYSQHMNHRYSYCKREAEERDSTEQEEAGPEILSNEHVGARASPSQGDSDERESLTREEDEDSEKEEEEEDKEMEELQEEKECEKPQGDEEEEEEEEEVEEEEVEEAENEGEEAKTEGLMKDDRAESQASSLGQKVGESSEQVSEEKTNEA
